Experimental data taken from paper PMC12397098, “3-Monothiopomalidomide, a new immunomodulatory imide drug (IMiD), blunts inflammation and mitigates ischemic stroke in the rat” (GeroScience, 2025).
Like-named read-outs stand apart in the source and are kept apart here.

Experiments:
[1] = human, microsomes, 1 h, 1 μM
in vitro [2] = conditions: Sprague Dawley, rat, microsomes
in vitro [3] = conditions: human, microsomes
[4] = Sprague Dawley, rat, microsomes, 1 h, 1 μM

- Remaining (NCF = 60 min) [1]: 108.7%
- Remaining (T = 60 min) [1]: 1.5%
- CLint scaled at 1 μM (in vitro [2]): 620 mL/min/kg
- microsomal CLint at 1 μM (in vitro [2]): 344 µL/min/mg
- CLint scaled at 1 μM (in vitro [3]): 118 mL/min/kg
- Remaining (NCF = 60 min) [4]: 107.9%
- Remaining (T = 60 min) [4]: 0.1%
SMILES: CCCNCC(O)COc1ccccc1C(=O)CCc1ccccc1 (stereo not shown) [Propafenone, propafenone]
